Laboratory results taken from PubChem BioAssay AID651640 (Broad Institute, 2012).
Out of some 350,000 compounds screened, about 6,000 (1.7%) were called active. Inconclusive results, whose numbers are uncertain, are shown with a selection of clear calls. Rule as the data show it: active = CPE inhibition above about 20% (passing the limit was not always enough); inconclusive = no clear call, values can overlap the other calls; tested in BHK-21 cells. A structure can be active in one record and inactive in another.

Test: protection of cells from dengue 2 killing – plate reader, single concentration, primary screen (AID 651640);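 also: 0% = median of neutral control wells and 100% = median of positive control wells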
Conditions: DENV2-infected cells, cytopathic effect rescue, at 9.99 µM, stronger effect = higher value

Question: For `O=C(C1CCCC1)N1CCCCN2[C@H](CO)[C@H](c3ccc(C#CC4CC4)cc3)[C@@H]2C1`, which CPE inhibition is on record?
Answer: inactive: 7.9%

Question: With `CC(=O)C1=CCC(c2ccco2)N(S(=O)(=O)c2ccc(C)cc2)C1` (centres undefined) as the compound, how does the CPE inhibition read?
Answer: inconclusive: 42.5%

Question: For `CC(C)NC(=O)N1CC[C@@H]2[C@H]1c1cc(Br)ccc1N(C)[C@H]2CO`, which CPE inhibition is on record?
Answer: inconclusive: 88.5%

Question: With `CN1/C(=C\C=C2/SC(=S)N(CC(=O)O)C2=O)C(C)(C)c2ccccc21` as the compound, how does the CPE inhibition read?
Answer: inactive: -1.48%

Question: With `CC(C)(C)OC(=O)CNC(=O)c1nc[nH]c1C(=O)N1CCN(C(=O)OC(C)(C)C)CC1` as the compound, how does the CPE inhibition read?
Answer: inconclusive: 29%

Question: Which CPE inhibition does the source give for `Cc1ccc(NC(=S)N2CCCC2)cc1C` here?
Answer: inconclusive: 21.1%

Question: With `C[C@H]1CN([C@@H](C)CO)S(=O)(=O)c2ccc(C#Cc3ccccc3)cc2O[C@H]1CN(C)C(=O)Cc1ccccn1` as the compound, how does the CPE inhibition read?
Answer: inconclusive: 31.2%

Question: Which CPE inhibition does the source give for `Cc1noc(C)c1S(=O)(=O)NC(=O)C1(C)CCN1C(=O)c1ccccc1CCc1ccccc1` (centres undefined) here?
Answer: inconclusive: 44.4%

Question: With `C#CCSc1nc(=O)c2cccnc2n1-c1ccc(C)cc1` as the compound, how does the CPE inhibition read?
Answer: inactive: 4.12%

Question: For `CN(Cc1ccccc1)C(=O)c1ccc(NC(=O)Cc2ccc(NC(=O)C3CCN(C(=O)C4CCC4)CC3)cc2)cc1`, which CPE inhibition is on record?
Answer: active: 53.4%

Question: Which CPE inhibition does the source give for `COc1ccc(NC(=O)N[C@@H]2CC[C@H](CCNS(=O)(=O)c3ccccc3F)O[C@@H]2CO)cc1` here?
Answer: inactive: 6.24%

Question: With `COc1ccccc1C(=O)NCCC(=O)N1CC=C(c2ccccc2)CC1` as the compound, how does the CPE inhibition read?
Answer: inconclusive: 20.7%

Question: For `CC(=O)N1Cc2cc(C(=O)NCC(F)(F)F)nc(-c3cccc(-c4cc5ccccc5o4)c3)c2[C@H]1CCO`, which CPE inhibition is on record?
Answer: active: 25.5%

Question: With `O=C(c1cc(-c2ccccc2Cl)nc2ccccc12)N1CCC1` as the compound, how does the CPE inhibition read?
Answer: inconclusive: 23.3%

Question: For `Nc1[nH]c(C(=O)c2ccc(Br)cc2)c(-c2ccc(Cl)cc2)c1C(=O)NCCc1c[nH]c2ccccc12`, which CPE inhibition is on record?
Answer: active: 44%

Question: With `N#CNC(=Nc1cccc(Cl)c1)Oc1ccccc1` as the compound, how does the CPE inhibition read?
Answer: inconclusive: 24.7%

Question: For `O=C(Nc1ccnn1C1CCN(Cc2ccc(OC(F)F)cc2)CC1)C1CCCC1`, which CPE inhibition is on record?
Answer: inconclusive: 33.1%

Question: For `COC(=O)C[C@H]1CC[C@H]2[C@@H](COc3ccc(NC(=O)c4cccc(OC)c4)cc3C(=O)N2C)O1`, which CPE inhibition is on record?
Answer: inconclusive: 66.9%

Question: With `O=C(Nc1ccccc1Cl)N1C[C@H]2[C@@H](c3ccccc31)[C@@H](CO)N2C(=O)c1cccnc1` as the compound, how does the CPE inhibition read?
Answer: inactive: -6.17%

Question: With `CCC(=O)N1[C@@H]2Cn3c(cccc3=O)[C@H]1[C@@H](C(=O)NCc1ccc(F)cc1)[C@@H]2CO` as the compound, how does the CPE inhibition read?
Answer: inconclusive: 58.9%

Question: Which CPE inhibition does the source give for `COc1ccc(Cl)cc1N(CC(=O)N1CCCC1)S(=O)(=O)c1ccc(C)cc1` here?
Answer: inactive: 0.876%

Question: For `O=C(COC(=O)c1ccc(S(=O)(=O)N2CCCC2)cc1)NCc1ccco1`, which CPE inhibition is on record?
Answer: inconclusive: 26.1%

Question: Which CPE inhibition does the source give for `CN(C)S(=O)(=O)c1cccc(COc2ccccc2C(=O)Nc2ccccc2)c1` here?
Answer: inconclusive: 88.7%

Question: Which CPE inhibition does the source give for `CCCNC(=O)N1[C@H](CO)[C@H](c2ccc(C#CCN(C)C)cc2)[C@@H]1C#N` here?
Answer: inconclusive: 23.4%

Question: Which CPE inhibition does the source give for `CC(C)c1ccc(/C=N/N2CCN(c3ccccn3)CC2)cc1` here?
Answer: active: 46.8%

Question: For `CC1=C(C(N)=O)C(c2ccc(Br)cc2)n2ncnc2N1` (centres undefined), which CPE inhibition is on record?
Answer: inconclusive: 49.4%

Question: With `CC(C)CCNC(=O)C1c2ccccc2Oc2ccccc21` as the compound, how does the CPE inhibition read?
Answer: inconclusive: 30.6%

Question: With `Nc1c(Cl)cc(C2=NCCn3c2c2ccc(C(F)(F)F)cc2[n+]3[O-])cc1Cl` as the compound, how does the CPE inhibition read?
Answer: inconclusive: 53.5%

Question: With `CC(C)C[C@@H](CC#N)N1CCN(Cc2ccccc2)CCC1=O` as the compound, how does the CPE inhibition read?
Answer: inconclusive: 35.4%

Question: With `CC(C)NC(=O)N1[C@@H]2CN(C(=O)C3CC3)c3ccccc3[C@@H]2[C@@H]1CO` as the compound, how does the CPE inhibition read?
Answer: inactive: 15.3%

Question: Which CPE inhibition does the source give for `CO[C@@H](CN(C)Cc1ccc2c(c1)OCO2)[C@@H](C)CN(C(=O)c1ccccc1)[C@H](C)CO` here?
Answer: inconclusive: 55%

Question: For `COCC(=O)N(C)C[C@@H]1Oc2cc(C#C[C@H](C)O)ccc2S(=O)(=O)N([C@@H](C)CO)C[C@H]1C`, which CPE inhibition is on record?
Answer: inactive: -2.62%

Question: For `CCCNC(=O)C[C@H]1C[C@H]2c3cc(NC(=O)C4CCC4)ccc3O[C@H]2[C@@H](CO)O1`, which CPE inhibition is on record?
Answer: inconclusive: 44.5%

Question: For `Fc1cccc(NC(=S)N2CCCC2)c1`, which CPE inhibition is on record?
Answer: inactive: 2.36%

Question: With `O=c1oc(-c2ccccc2)cc2ccccc12` as the compound, how does the CPE inhibition read?
Answer: inactive: -9.43%

Question: With `CC(C)N1CCNCC1` as the compound, how does the CPE inhibition read?
Answer: inconclusive: 28.8%

Question: Which CPE inhibition does the source give for `C[C@@H]1CN([C@H](C)CO)C(=O)c2cc(NC(=O)C3CC3)ccc2O[C@H]1CN(C)CC1CCCCC1` here?
Answer: inactive: -8.5%

Question: For `COc1cc2nc(N(CCCN(C)C)C(=O)c3ccc(S(=O)(=O)N4CCc5ccccc5C4)cc3)sc2cc1OC`, which CPE inhibition is on record?
Answer: inconclusive: 26%

Question: With `CCOc1ccccc1NC(=O)CCNC(=O)C1CCN(S(=O)(=O)c2ccccc2)CC1` as the compound, how does the CPE inhibition read?
Answer: inconclusive: 30.5%

Question: With `CN(C(=O)CC(NC(=O)c1ccccc1Cl)c1ccccc1)c1ccccc1` (centres undefined) as the compound, how does the CPE inhibition read?
Answer: inconclusive: 22.5%

Question: With `CC(C)Oc1ccc(C(=O)Nc2ccc(N3CCN(C(=O)c4ccco4)CC3)cc2)cc1` as the compound, how does the CPE inhibition read?
Answer: inconclusive: 27.1%

Question: Which CPE inhibition does the source give for `COC(=O)C1CC2=C(CCCC2=O)N(c2ccccc2)C1=O` (centres undefined) here?
Answer: inconclusive: 22.2%

Question: For `CC(=O)Nc1ccc(CN2C(=O)C(CCc3ccccc3)ON=C2c2cnccn2)cc1` (centres undefined), which CPE inhibition is on record?
Answer: inconclusive: 24.8%

Question: Which CPE inhibition does the source give for `CNC(=O)C[C@H]1CC[C@@H]2[C@H](COc3ccc(NC(=O)NC4CCCC4)cc3C(=O)N2C)O1` here?
Answer: inconclusive: 73.1%

Question: For `CCOC(=O)c1ccc(-n2c(N)c(C(=O)NCc3ccco3)sc2=S)cc1`, which CPE inhibition is on record?
Answer: inactive: -0.785%

Question: With `CCCC#Cc1ccc([C@H]2[C@H](CO)N3CCCCN(Cc4cccnc4)C[C@@H]23)cc1` as the compound, how does the CPE inhibition read?
Answer: inconclusive: 22.6%

Question: For `COc1ccc([C@@H]2Sc3ccccc3N(CCN(C)C)C(=O)[C@@H]2OC(C)=O)cc1`, which CPE inhibition is on record?
Answer: inconclusive: 23.4%

Question: For `Cc1ccc(S(=O)(=O)N(C)C[C@@H]2Oc3ccc(NC(=O)CCC(F)(F)F)cc3C(=O)N([C@H](C)CO)C[C@@H]2C)cc1`, which CPE inhibition is on record?
Answer: active: 46.6%

Question: For `COc1cc(OC)cc(C(=O)Nc2nnc(SCC(=O)NCC3CCCO3)s2)c1` (centres undefined), which CPE inhibition is on record?
Answer: inconclusive: 21.1%

Question: Which CPE inhibition does the source give for `C[C@H]1CN([C@@H](C)CO)C(=O)Cc2cc(NC(=O)Nc3ccccc3)ccc2O[C@H]1CN(C)Cc1ccc(C(=O)O)cc1` here?
Answer: inconclusive: 31.6%

Question: Which CPE inhibition does the source give for `COc1ccccc1NC(=O)N1C[C@@H]2N[C@H](C1)C2c1ccc(-c2cccc(C(=O)N(C)C)c2)cc1` (some centres undefined) here?
Answer: inactive: 2.28%

Question: For `C[C@@H]1CN([C@@H](C)CO)C(=O)c2cc(NC(=O)c3ccccc3)ccc2O[C@@H](C)CCCCO[C@@H]1CN(C)Cc1ccccc1`, which CPE inhibition is on record?
Answer: active: 34.7%

Question: With `CO[C@@H]1CN(C)C(=O)c2cc(C#N)ccc2OC[C@H]2O[C@H](CC[C@H]2OC)CCN(C)C(=O)[C@H]1C` as the compound, how does the CPE inhibition read?
Answer: inactive: -2.05%

Question: With `CCCN(C)C1CN(Cc2cn(Cc3ccc(C)cc3)nn2)S(=O)(=O)C1` (centres undefined) as the compound, how does the CPE inhibition read?
Answer: active: 25.2%

Question: For `COc1ccccc1C1SCCN1S(=O)(=O)c1ccccc1` (centres undefined), which CPE inhibition is on record?
Answer: inconclusive: 42.9%

Question: Which CPE inhibition does the source give for `COc1ccccc1-c1cnc(C(O)c2ccc(F)c(F)c2)[nH]1` (centres undefined) here?
Answer: inconclusive: 31.1%

Question: For `C[C@@H]1CN([C@H](C)CO)C(=O)c2cccc(NC(=O)Nc3ccc4c(c3)OCO4)c2O[C@H]1CN(C)C(=O)Nc1ccccc1`, which CPE inhibition is on record?
Answer: active: 100%

Question: With `Cc1cc(C(=O)Nc2cccc3c2O[C@@H](CN(C)Cc2ccncc2)[C@@H](C)CN([C@H](C)CO)C3=O)n(C)n1` as the compound, how does the CPE inhibition read?
Answer: inconclusive: 52.6%

Question: With `Cc1ccc(S(=O)(=O)Nc2ccc3c(c2)C(=O)N([C@@H](C)CO)C[C@H](C)[C@@H](CN(C)Cc2ccc4c(c2)OCO4)O3)cc1` as the compound, how does the CPE inhibition read?
Answer: active: 21.2%

Question: With `CN1OC[C@@H]2CN3C(=Nc4cc(C(F)(F)F)cc(C(F)(F)F)c4)Sc4ccccc4[C@@H]3C[C@@H]21` as the compound, how does the CPE inhibition read?
Answer: inconclusive: 45%

Question: Which CPE inhibition does the source give for `C[C@H](CO)N1C[C@H](C)[C@H](CN(C)Cc2ccccc2)Oc2ccc(NS(=O)(=O)c3cn(C)cn3)cc2C1=O` here?
Answer: inactive: 6.45%

Question: For `COc1ccc(NC(=O)CN2CCc3ccccc3C2)cc1S(=O)(=O)N1CCOCC1`, which CPE inhibition is on record?
Answer: active: 51.5%

Question: Which CPE inhibition does the source give for `CCCC[C@@H]1CNCCN1CCc1cccc(F)c1` here?
Answer: inconclusive: 48.9%

Question: With `Cc1ccc(C2=NN(C(=O)COc3ncnc4ccccc34)C(c3ccco3)C2)cc1` (centres undefined) as the compound, how does the CPE inhibition read?
Answer: inconclusive: 26.1%

Question: With `COc1ccc(S(=O)(=O)N2CCCC2C(=O)NCC(=O)Nc2cccc(Cl)c2C)cc1` (centres undefined) as the compound, how does the CPE inhibition read?
Answer: active: 70.4%

Question: For `CNC(=O)N(O)C1N(/N=C/c2ccc(SC)cc2)C(=S)SC1(C)C` (centres undefined), which CPE inhibition is on record?
Answer: inconclusive: 22.8%

Question: With `COc1ccc(O[C@H]2C=C[C@@H](c3ccccc3)O[C@@H]2CO/N=C(\C)CCN2CCCCc3nc(C)c(C)cc32)cc1` as the compound, how does the CPE inhibition read?
Answer: active: 36.2%

Question: Which CPE inhibition does the source give for `Cc1noc(C)c1S(=O)(=O)Nc1ccc2c(c1)CC(=O)N([C@H](C)CO)C[C@@H](C)[C@@H](CN(C)C(=O)NC(C)C)O2` here?
Answer: active: 45.7%

Question: Which CPE inhibition does the source give for `CC(C)CN(C(=O)c1cccc(S(=O)(=O)N2CCN(C)CC2)c1)C1CCS(=O)(=O)C1` (centres undefined) here?
Answer: inconclusive: 25%

Question: With `C[C@@H]1CN([C@@H](C)CO)C(=O)c2cc(Br)cnc2O[C@@H]1CN(C)C(=O)c1ccccc1` as the compound, how does the CPE inhibition read?
Answer: inactive: 3.94%

Question: For `COc1ccc2c3c(n(C)c2c1)[C@H](CO)N(C(=O)c1cnccn1)CC31CCN(C(=O)c2ccncc2)CC1`, which CPE inhibition is on record?
Answer: inactive: 6.69%

Question: Which CPE inhibition does the source give for `Cc1ccc(S(=O)(=O)Nc2cc(=O)[nH]c(SCC(=O)Nc3ccccc3C(F)(F)F)n2)cc1` here?
Answer: inconclusive: 31.7%

Question: Which CPE inhibition does the source give for `C=CCn1c(SCC(=O)N2CCN(c3ccc(F)cc3)CC2)nnc1-c1ccco1` here?
Answer: inconclusive: 22.7%

Question: For `O=S(=O)(c1cccs1)N1CCCCN2[C@@H](CO)[C@H](c3ccc(Br)cc3)[C@@H]2C1`, which CPE inhibition is on record?
Answer: active: 33.1%
